Measured values: US6689868 (Dana-Farber, dated 2004)
Results are given in words; binding and its absence hold for the method and conditions named. In cells and extracts the contact can be indirect. Some results given as binding are weak or reduced against the parent protein; the word gives no strength.

Target: T1, protein tyrosine phosphatase PTP-PEST (endogenous, activated human T cells) (human) (UniProt Q05209)
T1 sequence (looked up): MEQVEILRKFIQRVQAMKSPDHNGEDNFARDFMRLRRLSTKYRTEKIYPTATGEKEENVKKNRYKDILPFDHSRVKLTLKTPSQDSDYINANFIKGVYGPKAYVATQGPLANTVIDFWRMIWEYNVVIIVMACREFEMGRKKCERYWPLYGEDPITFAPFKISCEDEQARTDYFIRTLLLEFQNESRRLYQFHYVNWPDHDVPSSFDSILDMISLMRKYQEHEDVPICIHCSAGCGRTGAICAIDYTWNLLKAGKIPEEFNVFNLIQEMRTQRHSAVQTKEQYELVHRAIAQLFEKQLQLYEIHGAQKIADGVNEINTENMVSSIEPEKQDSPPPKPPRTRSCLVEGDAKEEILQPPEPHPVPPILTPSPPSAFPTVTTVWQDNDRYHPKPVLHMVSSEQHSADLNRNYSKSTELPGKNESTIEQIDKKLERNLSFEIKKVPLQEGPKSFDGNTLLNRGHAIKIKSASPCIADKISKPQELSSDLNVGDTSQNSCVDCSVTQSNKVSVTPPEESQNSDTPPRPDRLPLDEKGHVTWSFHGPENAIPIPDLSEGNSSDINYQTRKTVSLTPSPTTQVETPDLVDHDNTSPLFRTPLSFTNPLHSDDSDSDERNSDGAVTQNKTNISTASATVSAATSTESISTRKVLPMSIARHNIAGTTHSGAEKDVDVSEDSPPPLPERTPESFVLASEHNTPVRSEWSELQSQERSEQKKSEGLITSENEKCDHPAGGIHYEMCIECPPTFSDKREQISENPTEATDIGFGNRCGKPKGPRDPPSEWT
Test: co-immunoprecipitation with 8C93D8-Sepharose from activated human T cell lysates, anti-PTP-PEST Western blot; prevented by preincubation with soluble 8C93D8, not by mouse IgG

B1: CD2BP1 protein (endogenous, activated human T cells) (other)
chain: MMPQLQFKDAFWCRDFTAHTGYEVLLQRLLDGRKMCKDMEELLRQRAQAEERYGKELVQIARKAGGQTEINSLRASFDSLKQQMENVGSSHIQLALTLREELRSLEEFRERQKEQRKKYEAVMDRVQKSKLSLYKKAMESKKTYEQKCRDADDAEQAFERISANGHQKQVEKSQNKARQCKDSATEAERVYRQSIAQLEKVRAEWEQEHRTTCEAFQLQEFDRLTILRNALWVHSNQLSMQCVKDDELYEEVRLTLEGCSIDADIDSFIQAKSTGTEPPAPVPYQNYYDREVTPLTSSPGIQPSCGMIKRFSGLLHGSPKTTSLAASAASTETLTPTPERNEGVYTAIAVQEIQGNPASPAQEYRALYDYTAQNPDELDLSAGDILEVILEGEDGWWTVERNGQRGFVPGSYLEKL
notes: Endogenous protein
binding: binds
